The source of these data is the supplement of paper PMC10849652.

Sequences of proteins named here, by UniProt entry; tags and fusion partners are left off. A change or cut given only in a name is not applied to a line headed by its entry.
UniProt Q15053: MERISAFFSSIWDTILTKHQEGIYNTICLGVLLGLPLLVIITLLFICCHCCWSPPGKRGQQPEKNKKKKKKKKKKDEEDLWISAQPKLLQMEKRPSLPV
UniProt Q9Y4C1: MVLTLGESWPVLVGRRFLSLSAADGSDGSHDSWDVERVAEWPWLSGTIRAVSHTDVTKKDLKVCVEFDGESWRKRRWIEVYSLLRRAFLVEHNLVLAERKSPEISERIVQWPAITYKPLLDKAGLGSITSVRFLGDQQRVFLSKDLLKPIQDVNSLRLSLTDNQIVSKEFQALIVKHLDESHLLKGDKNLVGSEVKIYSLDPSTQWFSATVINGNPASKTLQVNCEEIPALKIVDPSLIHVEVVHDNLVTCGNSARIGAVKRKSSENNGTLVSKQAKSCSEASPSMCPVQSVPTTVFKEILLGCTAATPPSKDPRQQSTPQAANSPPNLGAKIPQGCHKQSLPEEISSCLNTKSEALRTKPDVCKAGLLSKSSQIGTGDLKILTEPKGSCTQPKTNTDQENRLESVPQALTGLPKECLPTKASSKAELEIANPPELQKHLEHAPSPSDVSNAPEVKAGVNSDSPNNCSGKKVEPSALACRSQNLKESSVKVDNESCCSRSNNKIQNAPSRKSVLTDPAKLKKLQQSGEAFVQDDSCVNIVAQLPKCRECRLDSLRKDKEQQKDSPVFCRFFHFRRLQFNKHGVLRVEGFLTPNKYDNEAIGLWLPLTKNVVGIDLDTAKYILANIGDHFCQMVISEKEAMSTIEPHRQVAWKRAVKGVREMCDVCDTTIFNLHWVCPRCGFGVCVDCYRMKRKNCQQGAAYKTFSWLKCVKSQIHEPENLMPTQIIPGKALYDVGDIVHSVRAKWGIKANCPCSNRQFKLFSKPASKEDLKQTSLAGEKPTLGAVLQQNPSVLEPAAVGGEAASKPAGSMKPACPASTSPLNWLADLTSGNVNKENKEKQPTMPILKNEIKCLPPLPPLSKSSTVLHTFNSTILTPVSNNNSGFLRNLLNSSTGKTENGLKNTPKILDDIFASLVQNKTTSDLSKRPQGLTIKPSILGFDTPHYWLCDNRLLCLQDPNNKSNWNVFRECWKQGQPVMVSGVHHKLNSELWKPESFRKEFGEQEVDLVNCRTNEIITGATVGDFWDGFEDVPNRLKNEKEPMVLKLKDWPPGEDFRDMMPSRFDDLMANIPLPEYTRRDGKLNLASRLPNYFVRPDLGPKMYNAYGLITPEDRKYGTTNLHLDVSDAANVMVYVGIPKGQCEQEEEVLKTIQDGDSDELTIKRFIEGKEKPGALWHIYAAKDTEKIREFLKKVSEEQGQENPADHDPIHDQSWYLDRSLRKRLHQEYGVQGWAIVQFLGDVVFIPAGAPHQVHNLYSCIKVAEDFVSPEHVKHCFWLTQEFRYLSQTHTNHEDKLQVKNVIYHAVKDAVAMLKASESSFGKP
UniProt P05412, whole entry, looked up: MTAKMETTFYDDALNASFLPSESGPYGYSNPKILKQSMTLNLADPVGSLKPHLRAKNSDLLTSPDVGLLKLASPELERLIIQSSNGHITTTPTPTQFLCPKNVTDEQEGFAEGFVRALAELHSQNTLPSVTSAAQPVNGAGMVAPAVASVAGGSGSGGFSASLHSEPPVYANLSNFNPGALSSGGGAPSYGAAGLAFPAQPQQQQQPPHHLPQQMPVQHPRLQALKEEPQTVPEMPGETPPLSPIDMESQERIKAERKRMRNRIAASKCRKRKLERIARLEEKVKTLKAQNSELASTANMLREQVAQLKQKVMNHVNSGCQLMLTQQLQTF
UniProt Q2M2Z5: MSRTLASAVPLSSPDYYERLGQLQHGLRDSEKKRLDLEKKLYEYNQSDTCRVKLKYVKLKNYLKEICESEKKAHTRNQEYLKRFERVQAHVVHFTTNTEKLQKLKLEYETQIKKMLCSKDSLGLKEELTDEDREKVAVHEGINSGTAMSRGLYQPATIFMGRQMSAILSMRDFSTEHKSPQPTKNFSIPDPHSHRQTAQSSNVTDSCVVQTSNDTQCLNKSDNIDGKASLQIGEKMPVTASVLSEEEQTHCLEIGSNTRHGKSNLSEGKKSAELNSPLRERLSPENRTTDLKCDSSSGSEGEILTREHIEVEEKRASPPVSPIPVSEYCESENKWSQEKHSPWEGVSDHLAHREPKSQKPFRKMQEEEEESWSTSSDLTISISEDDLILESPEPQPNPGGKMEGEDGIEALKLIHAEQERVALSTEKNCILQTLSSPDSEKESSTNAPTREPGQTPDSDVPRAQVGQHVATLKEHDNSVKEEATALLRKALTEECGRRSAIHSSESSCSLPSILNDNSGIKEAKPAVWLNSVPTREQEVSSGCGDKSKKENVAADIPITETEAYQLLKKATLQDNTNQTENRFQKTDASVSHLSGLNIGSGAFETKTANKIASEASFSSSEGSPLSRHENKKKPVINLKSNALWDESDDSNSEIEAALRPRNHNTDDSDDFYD
UniProt Q8IZD2: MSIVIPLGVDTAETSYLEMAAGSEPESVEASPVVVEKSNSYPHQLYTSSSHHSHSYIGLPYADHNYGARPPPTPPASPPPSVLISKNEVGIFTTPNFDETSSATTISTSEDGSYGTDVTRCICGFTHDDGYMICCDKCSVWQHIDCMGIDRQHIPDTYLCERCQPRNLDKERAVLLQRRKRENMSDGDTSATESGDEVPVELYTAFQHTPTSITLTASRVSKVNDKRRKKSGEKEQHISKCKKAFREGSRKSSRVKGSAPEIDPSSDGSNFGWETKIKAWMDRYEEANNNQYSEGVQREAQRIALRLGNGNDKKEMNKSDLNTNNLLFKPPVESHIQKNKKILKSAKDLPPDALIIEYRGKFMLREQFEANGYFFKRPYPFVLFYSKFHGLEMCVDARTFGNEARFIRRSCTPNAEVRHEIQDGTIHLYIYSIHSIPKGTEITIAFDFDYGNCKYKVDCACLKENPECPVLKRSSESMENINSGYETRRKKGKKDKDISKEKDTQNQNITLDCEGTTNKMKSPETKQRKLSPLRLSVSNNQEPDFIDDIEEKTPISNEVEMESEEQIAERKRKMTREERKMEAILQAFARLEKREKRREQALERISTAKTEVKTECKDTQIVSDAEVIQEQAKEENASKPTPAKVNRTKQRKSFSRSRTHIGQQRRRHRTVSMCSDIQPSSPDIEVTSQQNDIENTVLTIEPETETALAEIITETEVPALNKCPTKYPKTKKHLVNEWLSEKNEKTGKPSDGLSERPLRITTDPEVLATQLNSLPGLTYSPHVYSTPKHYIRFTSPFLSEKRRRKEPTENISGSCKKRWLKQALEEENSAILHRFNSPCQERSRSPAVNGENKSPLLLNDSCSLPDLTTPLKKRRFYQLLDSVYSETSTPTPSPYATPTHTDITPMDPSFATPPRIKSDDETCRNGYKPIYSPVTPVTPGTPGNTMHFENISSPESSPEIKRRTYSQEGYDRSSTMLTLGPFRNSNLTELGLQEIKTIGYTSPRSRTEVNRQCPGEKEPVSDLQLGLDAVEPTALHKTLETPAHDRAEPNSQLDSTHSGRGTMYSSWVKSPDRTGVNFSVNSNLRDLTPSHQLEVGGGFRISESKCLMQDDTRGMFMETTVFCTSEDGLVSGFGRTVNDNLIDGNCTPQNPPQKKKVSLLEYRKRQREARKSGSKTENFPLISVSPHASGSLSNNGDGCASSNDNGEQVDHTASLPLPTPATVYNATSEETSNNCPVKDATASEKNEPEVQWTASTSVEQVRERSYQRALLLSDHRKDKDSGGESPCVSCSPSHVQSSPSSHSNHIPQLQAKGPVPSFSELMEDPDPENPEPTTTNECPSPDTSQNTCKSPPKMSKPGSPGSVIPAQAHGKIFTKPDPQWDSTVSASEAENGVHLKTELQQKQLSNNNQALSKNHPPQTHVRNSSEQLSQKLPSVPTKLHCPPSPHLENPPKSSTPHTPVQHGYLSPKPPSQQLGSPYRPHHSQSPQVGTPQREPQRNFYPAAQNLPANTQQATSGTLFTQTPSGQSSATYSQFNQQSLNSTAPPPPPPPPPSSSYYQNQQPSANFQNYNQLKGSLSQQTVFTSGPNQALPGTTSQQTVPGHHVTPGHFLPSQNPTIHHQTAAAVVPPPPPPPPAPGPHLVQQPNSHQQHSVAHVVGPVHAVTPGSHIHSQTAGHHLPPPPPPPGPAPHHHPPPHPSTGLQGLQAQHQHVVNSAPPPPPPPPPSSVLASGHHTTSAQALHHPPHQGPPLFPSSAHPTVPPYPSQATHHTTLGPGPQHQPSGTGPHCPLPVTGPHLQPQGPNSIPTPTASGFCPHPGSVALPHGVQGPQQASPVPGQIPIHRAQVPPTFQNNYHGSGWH
UniProt O00180: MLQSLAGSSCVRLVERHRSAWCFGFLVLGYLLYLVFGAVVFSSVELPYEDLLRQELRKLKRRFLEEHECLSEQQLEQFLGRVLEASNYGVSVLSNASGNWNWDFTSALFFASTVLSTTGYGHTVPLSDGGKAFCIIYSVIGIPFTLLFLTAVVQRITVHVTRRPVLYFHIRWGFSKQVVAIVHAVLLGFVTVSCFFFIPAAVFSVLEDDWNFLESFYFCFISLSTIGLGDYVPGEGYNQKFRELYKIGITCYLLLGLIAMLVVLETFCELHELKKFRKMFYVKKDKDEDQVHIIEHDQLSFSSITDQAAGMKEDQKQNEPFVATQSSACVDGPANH
UniProt Q9H1H9: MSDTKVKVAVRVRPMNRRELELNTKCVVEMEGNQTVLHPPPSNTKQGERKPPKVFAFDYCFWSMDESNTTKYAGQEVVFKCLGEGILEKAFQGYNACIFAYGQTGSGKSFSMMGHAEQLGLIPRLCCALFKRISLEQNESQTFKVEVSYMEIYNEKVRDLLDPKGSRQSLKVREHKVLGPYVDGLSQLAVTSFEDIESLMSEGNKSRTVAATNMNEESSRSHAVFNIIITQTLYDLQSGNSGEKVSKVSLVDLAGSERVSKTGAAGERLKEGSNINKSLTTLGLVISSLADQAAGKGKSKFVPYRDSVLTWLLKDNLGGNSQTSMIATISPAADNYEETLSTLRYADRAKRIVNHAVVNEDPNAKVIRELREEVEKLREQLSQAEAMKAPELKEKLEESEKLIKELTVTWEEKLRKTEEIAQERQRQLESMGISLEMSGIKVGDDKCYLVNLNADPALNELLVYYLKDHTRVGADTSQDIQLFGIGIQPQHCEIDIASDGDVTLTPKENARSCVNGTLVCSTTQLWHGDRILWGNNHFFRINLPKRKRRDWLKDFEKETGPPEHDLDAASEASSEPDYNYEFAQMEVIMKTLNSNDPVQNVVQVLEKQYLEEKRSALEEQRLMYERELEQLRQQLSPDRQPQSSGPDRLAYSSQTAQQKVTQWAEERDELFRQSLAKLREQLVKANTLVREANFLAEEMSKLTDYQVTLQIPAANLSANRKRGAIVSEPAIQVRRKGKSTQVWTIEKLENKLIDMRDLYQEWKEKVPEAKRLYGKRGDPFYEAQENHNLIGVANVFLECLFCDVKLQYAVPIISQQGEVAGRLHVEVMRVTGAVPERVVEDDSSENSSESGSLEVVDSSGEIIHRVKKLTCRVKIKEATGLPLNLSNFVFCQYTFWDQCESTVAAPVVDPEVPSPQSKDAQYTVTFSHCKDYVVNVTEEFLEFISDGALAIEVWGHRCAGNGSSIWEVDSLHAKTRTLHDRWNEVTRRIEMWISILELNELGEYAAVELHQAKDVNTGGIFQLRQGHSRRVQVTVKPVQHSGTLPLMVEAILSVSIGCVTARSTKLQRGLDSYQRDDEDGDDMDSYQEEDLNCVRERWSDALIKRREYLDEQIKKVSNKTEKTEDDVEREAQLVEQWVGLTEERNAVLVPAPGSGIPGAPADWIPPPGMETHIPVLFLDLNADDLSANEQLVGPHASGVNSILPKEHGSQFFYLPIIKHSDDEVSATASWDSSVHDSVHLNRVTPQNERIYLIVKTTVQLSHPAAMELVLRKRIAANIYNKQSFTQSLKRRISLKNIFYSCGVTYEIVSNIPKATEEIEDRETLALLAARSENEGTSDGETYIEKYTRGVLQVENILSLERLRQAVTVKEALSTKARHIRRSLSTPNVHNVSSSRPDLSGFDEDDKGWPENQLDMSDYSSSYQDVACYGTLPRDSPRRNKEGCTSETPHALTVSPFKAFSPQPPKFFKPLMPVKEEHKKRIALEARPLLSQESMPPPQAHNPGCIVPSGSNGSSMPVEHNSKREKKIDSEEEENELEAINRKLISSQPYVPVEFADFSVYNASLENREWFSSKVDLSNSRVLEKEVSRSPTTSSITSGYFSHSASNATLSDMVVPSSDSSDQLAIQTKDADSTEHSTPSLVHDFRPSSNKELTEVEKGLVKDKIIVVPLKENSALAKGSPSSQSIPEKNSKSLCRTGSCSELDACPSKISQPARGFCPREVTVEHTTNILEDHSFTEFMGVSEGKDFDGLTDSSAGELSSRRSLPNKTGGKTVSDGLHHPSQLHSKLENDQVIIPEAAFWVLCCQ

The list shows a part of the results.

Compound in this test: c1ccc([C@@H]2C[C@H]2NC2CCNCC2)cc1
The experiment in a line: log2 fold change, soluble protein after heating vs DMSO (PISA); higher = thermal stabilisation; K562 cells, 10 uM, 30 min; active = over 0.2 and 3.5 SD of the protein, either way, in both replicates (recomputed). The gist of the method:
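Soluble protein was quantified by TMTpro 16plex LC-MS/MS after channel sums were equalised. It was obtained as the supernatant after 21,000xg for 90 min from pooled aliquots of K562 cells (2×10^6 cells/mL, 10 μM compound, 30 min) heated for 3 min across 48°C-58°C and extracted in PBS with 0.5% NP-40 at 4°C. Thermal stability values are relative to control samples and come from duplicates. They are given as log2 fold changes.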
Regarding KIAA0040 (UniProt Q15053), the log2 fold change was inactive: 0.144.
The figure for KLHL7 isoform 3 (UniProt Q8IXQ5) is inactive: 0.229; for KDM3A (UniProt Q9Y4C1) it is inactive: -0.15; for JOSD1 (UniProt Q15040) it is inactive: 0.107.
The figure for KDM6A (UniProt O15550) is inactive: -0.036; for KALRN (UniProt O60229) it is inactive: -0.174.
The figure for JUN (UniProt P05412) is inactive: 0.405; for KIZ (UniProt Q2M2Z5) it is inactive: 0.453; for KMT2E (UniProt Q8IZD2) it is inactive: 0.003.
KNL1 (UniProt Q8NG31): the log2 fold change was inactive: -0.099.
The figure for KCNK1 (UniProt O00180) is inactive: 0.102; for KIF16B isoform 2 (UniProt Q96L93) it is inactive: -0.141; for KDF1 (UniProt Q8NAX2) it is inactive: 0.233.
The figure for KIFC1 (UniProt Q9BW19) is inactive: 0.135.
On to KIF1C (UniProt O43896), for which the log2 fold change is inactive: -0.154.
For the target KCNK5 (UniProt O95279), the log2 fold change is inactive: -0.054.
The figure for KIF13A isoform 4 (UniProt Q9H1H9) is inactive: -0.367; for KMT2A isoform 3 (UniProt Q03164) it is inactive: -0.069; for KIF4A (UniProt O95239) it is inactive: 0.225.
The figure for KATNBL1 (UniProt Q9H079) is inactive: -0.043.
